In patent publication US4816559A, “Biologically active peptides TAN-866” (Takeda Chemical Industries, Ltd., priority 1986, dated 1989):
Not every detail of the peptide structures is certain; ends, links or a residue may be inferred. Where a SMILES comes first, the peptide text is derived from it. Bridges are numbered along the chain shown (N, C = ends). [ ]: non-standard residue; d: D form. The star is where a group is joined. ξ: configuration not given here. ξOrn(N(OH)Ac) = CC(=O)N(O)CCCC(N)C(=O)O; X1 = CCCCCCC=CCC(=O)*

Tested on: Pseudomonas aeruginosa P-9
Assay: Therapeutic effects to experimental infectious diseases in mice
Type: in vivo
Conditions: mice infected with Pseudomonas aeruginosa P-9; subcutaneous administration; total of three dosages

Compound: CCCCCCC=CCC(=O)NC1COC(=O)CNC(=O)C(CCCN(O)C(C)=O)NC(=O)CNC(=O)C(C)NC(=O)C(CCCN(O)C(C)=O)NC(=O)C(CO)NC(=O)C(C(C)C)NC(=O)CNC(=O)C(CCCN(O)C(C)=O)NC1=O (stereo not shown) [TAN-866A iron-free compound] (X1-S[ξOrn(N(OH)Ac)]GVS[ξOrn(N(OH)Ac)]AG[ξOrn(N(OH)Ac)]G; ester 1-C; configuration not given here)
- ED50: 0.44 mg/kg
